Laboratory results as given in publication PMC3885392.
These are yes or no findings as the source states them, for the method shown. For some of these results: In cells and extracts the contact can be indirect. Some binding calls cover weakened binding; strength is not graded here. For some of these results: Where a sequence is shown, tags or fusion partners need not be part of it. One block for each molecule: values may come before it.

The chains behind the UniProt entries cited, without tags or fusion partners.
UniProt P31751: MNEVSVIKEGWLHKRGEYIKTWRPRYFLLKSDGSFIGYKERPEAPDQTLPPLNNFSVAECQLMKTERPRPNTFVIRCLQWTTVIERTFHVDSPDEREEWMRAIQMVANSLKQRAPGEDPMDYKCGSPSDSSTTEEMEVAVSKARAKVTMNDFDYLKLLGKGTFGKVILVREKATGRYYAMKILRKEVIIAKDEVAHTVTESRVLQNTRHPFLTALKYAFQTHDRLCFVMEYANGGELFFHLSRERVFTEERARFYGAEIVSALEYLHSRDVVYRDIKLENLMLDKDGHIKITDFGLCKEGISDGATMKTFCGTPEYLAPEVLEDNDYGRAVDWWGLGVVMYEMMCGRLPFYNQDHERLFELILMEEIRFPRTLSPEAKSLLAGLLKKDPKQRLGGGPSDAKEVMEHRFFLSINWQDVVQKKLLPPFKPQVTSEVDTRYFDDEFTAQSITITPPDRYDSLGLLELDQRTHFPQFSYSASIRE
UniProt P31749: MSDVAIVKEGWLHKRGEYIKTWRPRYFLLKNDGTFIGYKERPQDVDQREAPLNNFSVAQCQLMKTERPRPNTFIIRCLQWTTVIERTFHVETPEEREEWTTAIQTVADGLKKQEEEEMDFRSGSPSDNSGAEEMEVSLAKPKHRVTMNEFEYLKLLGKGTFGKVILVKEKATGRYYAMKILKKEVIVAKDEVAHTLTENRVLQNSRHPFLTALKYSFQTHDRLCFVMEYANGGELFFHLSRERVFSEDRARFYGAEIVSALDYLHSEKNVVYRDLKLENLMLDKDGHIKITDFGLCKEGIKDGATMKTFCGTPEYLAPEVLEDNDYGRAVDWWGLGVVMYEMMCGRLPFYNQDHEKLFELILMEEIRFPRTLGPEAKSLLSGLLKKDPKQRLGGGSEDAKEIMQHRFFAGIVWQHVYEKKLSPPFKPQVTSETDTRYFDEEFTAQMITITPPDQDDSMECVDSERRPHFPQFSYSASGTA
UniProt Q9Y243: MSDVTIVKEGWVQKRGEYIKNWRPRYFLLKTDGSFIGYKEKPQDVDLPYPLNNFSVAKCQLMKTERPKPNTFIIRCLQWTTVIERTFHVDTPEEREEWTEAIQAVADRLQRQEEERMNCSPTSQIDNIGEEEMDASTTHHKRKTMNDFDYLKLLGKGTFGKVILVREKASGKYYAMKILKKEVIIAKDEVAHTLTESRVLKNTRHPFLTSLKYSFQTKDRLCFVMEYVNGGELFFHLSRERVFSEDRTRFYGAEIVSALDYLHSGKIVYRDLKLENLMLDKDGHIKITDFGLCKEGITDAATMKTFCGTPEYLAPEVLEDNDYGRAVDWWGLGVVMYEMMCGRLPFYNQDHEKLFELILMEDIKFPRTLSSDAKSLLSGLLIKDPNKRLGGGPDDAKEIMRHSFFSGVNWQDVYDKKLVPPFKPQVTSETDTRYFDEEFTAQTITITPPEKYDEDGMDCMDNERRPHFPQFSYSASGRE

Experiments:
[1] = molecular target: T1, Flag-tagged Phafin2 (human) (UniProt Q9H8W4); assay: co-IP; 293T cells co-transfected with the indicated plasmids, 72 h, Brij97 lysis buffer, immunoprecipitated with anti-HA or anti-Flag antibody with mouse IgG as a control, immunoblot
T1 sequence: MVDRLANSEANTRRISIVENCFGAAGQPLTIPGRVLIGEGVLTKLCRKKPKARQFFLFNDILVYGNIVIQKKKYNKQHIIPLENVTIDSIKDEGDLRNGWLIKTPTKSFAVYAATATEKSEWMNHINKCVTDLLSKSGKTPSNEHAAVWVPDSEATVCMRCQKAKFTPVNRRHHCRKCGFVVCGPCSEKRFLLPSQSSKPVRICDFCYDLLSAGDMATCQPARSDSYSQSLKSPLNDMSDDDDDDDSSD

[2] = molecular target: T2, N-terminal Venus fused Phafin2 (pCAGGS-VN-Phafin2) (human) (UniProt Q9H8W4); assay: split reporter; BiFC in HeLa cells transfected with pCAGGS-VN-Phafin2 and pCAGGS-VC-Akt2; normal condition, rapamycin or HBSS; fixed, confocal microscopy
T2 sequence: T1 sequence

[3] = molecular target: T3, GST-wild type Phafin2 recombinant protein (human) (UniProt Q9H8W4); assay: pull-down; GST pull-down: recombinant active or unactive Akt1 incubated with GST-Phafin2 beads in 1% Triton buffer, 50 mM Tris HCl (pH 7.5), 150 mM NaCl, 5 min at 4°C; immunoblot with anti-Akt antibody; both purified
T3 sequence: T1 sequence

[4] = molecular target: T4, Endogenous Phafin2 (HT1080 cells) (human (endogenous in HT1080)) (UniProt Q9H8W4); assay: co-IP; endogenous proteins in HT1080 cells, co-immunoprecipitation and immunoblot
T4 sequence: T1 sequence

[5] = molecular target: T5, Venus fused Phafin2 (pCXN2-Venus-Phafin2) (human) (UniProt Q9H8W4); assay: FRET or BRET; FRET in HeLa cells transfected with pCXN2-ECFP-Akt2 and pCXN2-Venus-Phafin2; non-treated, 10 µM rapamycin or HBSS
T5 sequence: T1 sequence

[6] = molecular target: human Akt2 bait (human Akt2/pAS2-1) (human) (UniProt P31751); assay: two-hybrid; yeast two-hybrid screen, Y190 cells transformed with the bait plasmid human Akt2/pAS2-1; β-gal positive clones

binding [1]: binds
Molecule: HA-tagged Akt2 (from UniProt P31751 1-481) (enzyme)

binding [2]: binds
Molecule: C-terminal Venus fused to Akt2 (pCAGGS-VC-AKT2) (from UniProt P31751 1-481) (enzyme)

binding [3]: binds
Molecule: Recombinant "unactive" Akt1/PKBα (from UniProt P31749 1-480) (enzyme)

binding [4]: binds
Molecule: Endogenous Akt2 (HT1080 cells) (from UniProt P31751 1-481) (enzyme)

binding [4]: binds
Molecule: Endogenous Akt1 (HT1080 cells) (from UniProt P31749 1-480) (enzyme)

binding [1]: binds
Molecule: HA-tagged Akt1 (from UniProt P31749 1-480) (enzyme)

binding [1]: no binding
Molecule: HA-tagged Akt3 (from UniProt Q9Y243 1-479) (enzyme)

binding [5]: binds
Molecule: ECFP fused Akt2 (pCXN2-ECFP-Akt2) (from UniProt P31751 1-481) (enzyme)

binding [6]: binds
B1: Phafin2 (yeast two-hybrid clone, full length cDNA of human Phafin2) (protein, UniProt Q9H8W4 1-249)
chain: T1 sequence

binding [1]: no binding
B2: HA-PDK1 (enzyme, UniProt O15530 1-556)
chain: MARTTSQLYDAVPIQSSVVLCSCPSPSMVRTQTESSTPPGIPGGSRQGPAMDGTAAEPRPGAGSLQHAQPPPQPRKKRPEDFKFGKILGEGSFSTVVLARELATSREYAIKILEKRHIIKENKVPYVTRERDVMSRLDHPFFVKLYFTFQDDEKLYFGLSYAKNGELLKYIRKIGSFDETCTRFYTAEIVSALEYLHGKGIIHRDLKPENILLNEDMHIQITDFGTAKVLSPESKQARANSFVGTAQYVSPELLTEKSACKSSDLWALGCIIYQLVAGLPPFRAGNEYLIFQKIIKLEYDFPEKFFPKARDLVEKLLVLDATKRLGCEEMEGYGPLKAHPFFESVTWENLHQQTPPKLTAYLPAMSEDDEDCYGNYDNLLSQFGCMQVSSSSSSHSLSASDTGLPQRSGSNIEQYIHDLDSNSFELDLQFSEDEKRLLLEKQAGGNPWHQFVENNLILKMGPVDKRKGLFARRRQLLLTEGPHLYYVDPVNKVLKGEIPWSQELRPEAKNFKTFFVHTPNRTYYLMDPSGNAHKWCRKIQEVWRQRYQSHPDAAVQ
